No constants are given. Whether binding was seen depends on the method and setting. In cells and extracts the contact can be indirect. Some entries that bind do so weakly or less than the wild type. For some of these results: Sequences can lack the tags named with a protein.
B1: HA-tagged STAT1, P42224 1-750 (protein)
chain: MSQWYELQQLDSKFLEQVHQLYDDSFPMEIRQYLAQWLEKQDWEHAANDVSFATIRFHDLLSQLDDQYSRFSLENNFLLQHNIRKSKRNLQDNFQEDPIQMSMIIYSCLKEERKILENAQRFNQAQSGNIQSTVMLDKQKELDSKVRNVKDKVMCIEHEIKSLEDLQDEYDFKCKTLQNREHETNGVAKSDQKQEQLLLKKMYLMLDNKRKEVVHKIIELLNVTELTQNALINDELVEWKRRQQSACIGGPPNACLDQLQNWFTIVAESLQQVRQQLKKLEELEQKYTYEHDPITKNKQVLWDRTFSLFQQLIQSSFVVERQPCMPTHPQRPLVLKTGVQFTVKLRLLVKLQELNYNLKVKVLFDKDVNERNTVKGFRKFNILGTHTKVMNMEESTNGSLAAEFRHLQLKEQKNAGTRTNEGPLIVTEELHSLSFETQLCQPGLVIDLETTSLPVVVISNVSQLPSGWASILWYNMLVAEPRNLSFFLTPPCARWAQLSEVLSWQFSSVTKRGLNVDQLNMLGEKLLGPNASPDGLIPWTRFCKENINDKNFPFWLWIESILELIKKHLLPLWNDGCIMGFISKERERALLKDQQPGTFLLRFSESSREGAITFTWVERSQNGGEPDFHAVEPYTKKELSAVTFPDIIRNYKVMAAENIPENPLKYLYPNIDKDHAFGKYYSRPKEAPEPMELDGPKGTGYIKTELISVSEVHPSRLQTTDNLLPMSPEEFDEVSRIVGSVEFDSMMNTV

By UniProt entry, the sequences of proteins in these tests, tags left out.
UniProt P52630: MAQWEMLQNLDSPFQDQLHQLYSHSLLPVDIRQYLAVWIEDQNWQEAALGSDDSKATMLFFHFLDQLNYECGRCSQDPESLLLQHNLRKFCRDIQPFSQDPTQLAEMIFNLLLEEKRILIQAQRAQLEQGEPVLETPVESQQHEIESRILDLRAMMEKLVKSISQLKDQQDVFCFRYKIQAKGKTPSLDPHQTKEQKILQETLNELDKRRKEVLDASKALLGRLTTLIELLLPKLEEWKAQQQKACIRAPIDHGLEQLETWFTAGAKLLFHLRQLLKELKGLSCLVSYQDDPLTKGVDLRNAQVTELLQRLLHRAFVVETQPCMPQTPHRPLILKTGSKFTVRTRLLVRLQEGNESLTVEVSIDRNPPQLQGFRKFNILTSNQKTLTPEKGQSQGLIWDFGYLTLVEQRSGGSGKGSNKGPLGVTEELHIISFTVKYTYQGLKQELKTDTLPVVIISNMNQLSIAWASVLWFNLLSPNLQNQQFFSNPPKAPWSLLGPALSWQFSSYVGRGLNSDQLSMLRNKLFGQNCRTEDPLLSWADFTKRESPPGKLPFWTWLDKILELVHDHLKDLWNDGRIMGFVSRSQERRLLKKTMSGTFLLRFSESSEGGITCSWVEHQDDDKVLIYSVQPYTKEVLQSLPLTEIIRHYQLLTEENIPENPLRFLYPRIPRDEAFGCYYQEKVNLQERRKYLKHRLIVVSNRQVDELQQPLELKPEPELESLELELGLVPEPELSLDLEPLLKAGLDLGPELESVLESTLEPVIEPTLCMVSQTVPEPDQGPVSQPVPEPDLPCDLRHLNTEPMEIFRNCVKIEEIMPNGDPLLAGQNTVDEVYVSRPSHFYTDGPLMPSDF

Columns and labels:
Test in all cases: co-IP
HA-tagged IRF9 = target: T1, HA-tagged IRF9 (UniProt Q00978)
T1 sequence: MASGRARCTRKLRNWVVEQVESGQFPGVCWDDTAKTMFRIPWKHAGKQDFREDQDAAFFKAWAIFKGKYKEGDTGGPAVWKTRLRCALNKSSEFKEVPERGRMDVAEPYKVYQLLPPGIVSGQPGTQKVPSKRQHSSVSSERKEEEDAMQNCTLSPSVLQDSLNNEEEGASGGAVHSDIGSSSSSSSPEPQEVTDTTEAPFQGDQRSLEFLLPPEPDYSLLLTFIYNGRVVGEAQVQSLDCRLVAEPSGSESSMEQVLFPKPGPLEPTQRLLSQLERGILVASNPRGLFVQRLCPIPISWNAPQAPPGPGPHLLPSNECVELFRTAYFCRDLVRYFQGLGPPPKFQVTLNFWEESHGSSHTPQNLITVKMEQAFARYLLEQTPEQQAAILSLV

HA-tagged STAT1 = HA-tagged STAT1 (UniProt P42224)
HA-tagged STAT2 = HA-tagged STAT2 (UniProt P52630)
Flag-tagged IRF9, Q00978 = target: T2, Flag-tagged IRF9, Q00978; conditions: remark: other sources report otherwise
T2 chain: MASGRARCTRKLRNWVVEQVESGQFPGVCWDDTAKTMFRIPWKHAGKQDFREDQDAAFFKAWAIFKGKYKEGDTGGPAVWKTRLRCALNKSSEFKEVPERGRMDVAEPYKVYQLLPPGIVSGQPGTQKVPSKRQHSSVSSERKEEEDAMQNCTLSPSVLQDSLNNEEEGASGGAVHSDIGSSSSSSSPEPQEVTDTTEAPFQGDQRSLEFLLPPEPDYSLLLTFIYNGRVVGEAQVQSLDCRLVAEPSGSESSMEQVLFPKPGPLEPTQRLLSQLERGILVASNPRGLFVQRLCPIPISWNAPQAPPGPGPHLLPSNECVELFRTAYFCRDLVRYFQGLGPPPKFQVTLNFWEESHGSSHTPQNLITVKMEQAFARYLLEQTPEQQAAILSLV

Molecule	binding (HA-tagged IRF9)	binding (HA-tagged STAT1)	binding (HA-tagged STAT2)	binding (Flag-tagged IRF9, Q00978)
S2 domain (aa 688-1273) of SARS-CoV-2 S protein with Flag-tag (from UniProt P0DTC2 688-1273) (domain or fragment)	binds	binds	binds	
B1				binds
